Here are results for 18 molecules from patent US10545077B2, “Solid phase microextraction coating” (JP SCIENTIFIC LIMITED, priority 2016, dated 2020).

SMILES strings stand for the structures.

The first data set in a line: SPME direct-immersion extraction at equilibrium from spiked water, GC-MS (fibre constant fc). The settings on record: PTFE AF 2400/HLB coating; 8 hrs, 35° C., 500 rpm; spiked ultrapure water.
The molecule `CCCCCCCCCO` [1-Nonanol] displayed a fc values of 4.45.
As to `CCCCCO` [1-Pentanol], the fc values was 0.04.
On the same count and under the same terms, next, `CCCCCCCCCCCO` [1-Undecanol]: 4.53; `CCCCC(C)=O` [2-Hexanone]: 0.13.
Same read-out and setting: next, `CCCCCCCC(C)=O` [2-Nonanone]: 1.93; `CCCCCCCCCC(C)=O` [2-Undecanone]: 15.72; `CC(=O)c1ccccc1` [Acetophenone]: 0.39.
For the molecule `c1ccccc1` [Benzene], the fc values was determined as 0.13.
Same read-out and setting: the same measure for `C=C(C)C1CC=C(C)C(=O)C1` (stereo not drawn) [Carvone]: 0.49; for `CCCCCCCCC(=O)OCC` [Ethyl nonanoate]: 4.09.
Molecule `CCCCCCCCCCC(=O)OCC` [Ethyl undecanoate] showed a fc values of 3.09.
The same measure, in the same setting: the same measure for `CC12CCC(CC1)C(C)(C)O2` [Eucalyptol]: 0.91; for `CC(C)=CCC/C(C)=C/C=O` [Geranial]: 10.23.
The same measure, in the same setting: next, `CCCCCC=O` [Hexanal]: 0.95.
In the case of `C=C(C)[C@H]1CC=C(C)CC1` [Limonene], the fc values was 0.41.
`C=CC(C)(O)CCC=C(C)C` (stereo not drawn) [Linalool] displayed a fc values of 0.66.
On the same count and under the same terms, next, `CC(C)=CCC/C(C)=C\C=O` [Neral]: 1.63; `CCCCCCCCC=O` [Nonanal]: 3.57.

Assay in another data set: as above
To be noted: DVB/Carboxen/PDMS coating; 8 hrs, 35° C., 500 rpm; spiked ultrapure water.
Take `CCCCCCCCCO` [1-Nonanol]: the fc values was 4.51.
The same measure, in the same setting: the same measure for `CCCCCO` [1-Pentanol]: 0.01.
On the same count and under the same terms, next, `CCCCCCCCCCCO` [1-Undecanol]: 5.70; `CCCCC(C)=O` [2-Hexanone]: 0.04.
On the same count and under the same terms, next, `CCCCCCCC(C)=O` [2-Nonanone]: 1.55; `CCCCCCCCCC(C)=O` [2-Undecanone]: 19.19.
In turn, `CC(=O)c1ccccc1` [Acetophenone] had a fc values of 0.40.
In turn, `c1ccccc1` [Benzene] gave a fc values of 0.15.
`C=C(C)C1CC=C(C)C(=O)C1` (stereo not drawn) [Carvone] returned a fc values of 0.82.
Still for that read-out and setting: the same measure for `CCCCCCCCC(=O)OCC` [Ethyl nonanoate]: 5.21; for `CCCCCCCCCCC(=O)OCC` [Ethyl undecanoate]: 4.38; for `CC12CCC(CC1)C(C)(C)O2` [Eucalyptol]: 0.20.
Consider `CC(C)=CCC/C(C)=C/C=O` [Geranial], for which the fc values is 45.92.
For the molecule `CCCCCC=O` [Hexanal], the fc values is reported as 0.31.
The same measure, in the same setting: next, `C=C(C)[C@H]1CC=C(C)CC1` [Limonene]: 0.79.
Still for that read-out and setting: next, `C=CC(C)(O)CCC=C(C)C` (stereo not drawn) [Linalool]: 0.53; `CC(C)=CCC/C(C)=C\C=O` [Neral]: 2.96.
With `CCCCCCCCC=O` [Nonanal], the fc values amounted to 3.78.
